# Measurements reported in PubChem BioAssay AID1224830 (NIAID, 2016)
# Assay: 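Host factors that control LPS-induced TNF expression in human macrophages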 (primary screen)
# Cells: human THP-1 monocytic leukaemia cells, TNF dual-luciferase reporter clone, PMA-differentiated to macrophage-like cells
# Knock-down reagent: siRNA pool against human genes, 50 nM
# Timing: LPS for 4 h, given about 3 days after siRNA transfection
# Treatment: bacterial LPS (TLR4 ligand), 10 ng/ml
# Measurement: 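TNF firefly reporter luminescence divided by renilla, normalised to the plate median, then turned into a robust z-score for each replicate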
# Direction: TNF reporter robust z-score: higher = stronger TNF reporter response to LPS
# Active means: 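Each well counts as active if its z-score is over 2.8 or under -1.5; controls are left without a call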
# The deposit covers about 18,000 reagents; below is a part drawn at random. About 2,900 of them (16%) count as active. 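Calls are made per well; low scores hint the gene aids the LPS response, high scores that it dampens it.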 Repeated entries: four replicate wells of each siRNA pool.
gene symbol,PubChem SID,TNF reporter robust z-score,call
VPS4B (vacuolar protein sorting 4 homolog B),SID315453354,-0.5,inactive
VPS4B (vacuolar protein sorting 4 homolog B),SID315453354,0.34,inactive
VPS4B (vacuolar protein sorting 4 homolog B),SID315453354,-0.15,inactive
VPS4B (vacuolar protein sorting 4 homolog B),SID315453354,-0.18,inactive
CIBAR2 (CBY1 interacting BAR domain containing 2),SID315464014,1.04,inactive
CIBAR2 (CBY1 interacting BAR domain containing 2),SID315464014,0.85,inactive
CIBAR2 (CBY1 interacting BAR domain containing 2),SID315464014,0.29,inactive
CIBAR2 (CBY1 interacting BAR domain containing 2),SID315464014,0.56,inactive
ADD1 (adducin 1),SID315447195,0.88,inactive
ADD1 (adducin 1),SID315447195,1.68,inactive
ADD1 (adducin 1),SID315447195,-0.33,inactive
ADD1 (adducin 1),SID315447195,1.02,inactive
ZDHHC1 (zDHHC palmitoyltransferase 1),SID315456179,-1.29,inactive
ZDHHC1 (zDHHC palmitoyltransferase 1),SID315456179,-1.57,active
ZDHHC1 (zDHHC palmitoyltransferase 1),SID315456179,-1.96,active
ZDHHC1 (zDHHC palmitoyltransferase 1),SID315456179,-0.8,inactive
"PWP1 (PWP1 homolog, endonuclein)",SID315454628,0.06,inactive
"PWP1 (PWP1 homolog, endonuclein)",SID315454628,0.3,inactive
"PWP1 (PWP1 homolog, endonuclein)",SID315454628,0.13,inactive
"PWP1 (PWP1 homolog, endonuclein)",SID315454628,0.03,inactive
CMTR2 (cap methyltransferase 2),SID315457853,-0.35,inactive
CMTR2 (cap methyltransferase 2),SID315457853,1.06,inactive
CMTR2 (cap methyltransferase 2),SID315457853,-0.31,inactive
CMTR2 (cap methyltransferase 2),SID315457853,0.11,inactive
DAP3 (death associated protein 3),SID315452316,0.57,inactive
DAP3 (death associated protein 3),SID315452316,0.23,inactive
DAP3 (death associated protein 3),SID315452316,0.45,inactive
DAP3 (death associated protein 3),SID315452316,-0.42,inactive
C1orf159 (chromosome 1 open reading frame 159),SID315457328,1.05,inactive
C1orf159 (chromosome 1 open reading frame 159),SID315457328,-0.12,inactive
C1orf159 (chromosome 1 open reading frame 159),SID315457328,-0.02,inactive
C1orf159 (chromosome 1 open reading frame 159),SID315457328,0.37,inactive
GUCY1B1 (guanylate cyclase 1 soluble subunit beta 1),SID315449111,-0.79,inactive
GUCY1B1 (guanylate cyclase 1 soluble subunit beta 1),SID315449111,-0.91,inactive
GUCY1B1 (guanylate cyclase 1 soluble subunit beta 1),SID315449111,-1.25,inactive
GUCY1B1 (guanylate cyclase 1 soluble subunit beta 1),SID315449111,-0.57,inactive
CORO1B (coronin 1B),SID315458314,-1.51,active
CORO1B (coronin 1B),SID315458314,-1.15,inactive
CORO1B (coronin 1B),SID315458314,-1.69,active
CORO1B (coronin 1B),SID315458314,-1,inactive
PITX3 (paired like homeodomain 3),SID315450604,-1.2,inactive
PITX3 (paired like homeodomain 3),SID315450604,-1.19,inactive
PITX3 (paired like homeodomain 3),SID315450604,-1.04,inactive
PITX3 (paired like homeodomain 3),SID315450604,-1.41,inactive
SLC75A1,SID315453924,0.5,inactive
SLC75A1,SID315453924,1.35,inactive
SLC75A1,SID315453924,0.56,inactive
SLC75A1,SID315453924,1.79,inactive
SCGB1D2 (secretoglobin family 1D member 2),SID315454265,2.51,inactive
SCGB1D2 (secretoglobin family 1D member 2),SID315454265,3.25,active
SCGB1D2 (secretoglobin family 1D member 2),SID315454265,2.36,inactive
SCGB1D2 (secretoglobin family 1D member 2),SID315454265,3.41,active
FANCB (FA complementation group B),SID315448631,0.19,inactive
FANCB (FA complementation group B),SID315448631,0.72,inactive
FANCB (FA complementation group B),SID315448631,0.33,inactive
FANCB (FA complementation group B),SID315448631,0.22,inactive

Continued, starting with the last 12 of the part before.
gene symbol,PubChem SID,TNF reporter robust z-score,call
SLC75A1,SID315453924,0.5,inactive
SLC75A1,SID315453924,1.35,inactive
SLC75A1,SID315453924,0.56,inactive
SLC75A1,SID315453924,1.79,inactive
SCGB1D2 (secretoglobin family 1D member 2),SID315454265,2.51,inactive
SCGB1D2 (secretoglobin family 1D member 2),SID315454265,3.25,active
SCGB1D2 (secretoglobin family 1D member 2),SID315454265,2.36,inactive
SCGB1D2 (secretoglobin family 1D member 2),SID315454265,3.41,active
FANCB (FA complementation group B),SID315448631,0.19,inactive
FANCB (FA complementation group B),SID315448631,0.72,inactive
FANCB (FA complementation group B),SID315448631,0.33,inactive
FANCB (FA complementation group B),SID315448631,0.22,inactive
CEP250 (centrosomal protein 250),SID315454678,-1.27,inactive
CEP250 (centrosomal protein 250),SID315454678,-1.53,active
CEP250 (centrosomal protein 250),SID315454678,-0.72,inactive
CEP250 (centrosomal protein 250),SID315454678,-0.75,inactive
KCNMB1,SID315449632,2.54,inactive
KCNMB1,SID315449632,0.63,inactive
KCNMB1,SID315449632,0.01,inactive
KCNMB1,SID315449632,-0.67,inactive
ZNF32 (zinc finger protein 32),SID315452211,1.3,inactive
ZNF32 (zinc finger protein 32),SID315452211,0.29,inactive
ZNF32 (zinc finger protein 32),SID315452211,6.48,active
ZNF32 (zinc finger protein 32),SID315452211,1.31,inactive
ECM2 (extracellular matrix protein 2),SID315448398,0.17,inactive
ECM2 (extracellular matrix protein 2),SID315448398,0.47,inactive
ECM2 (extracellular matrix protein 2),SID315448398,0.34,inactive
ECM2 (extracellular matrix protein 2),SID315448398,-0.78,inactive
ASB16-AS1 (ASB16 antisense RNA 1),SID315464018,-0.13,inactive
ASB16-AS1 (ASB16 antisense RNA 1),SID315464018,0.6,inactive
ASB16-AS1 (ASB16 antisense RNA 1),SID315464018,0.85,inactive
ASB16-AS1 (ASB16 antisense RNA 1),SID315464018,0.47,inactive
PRSS48 (serine protease 48),SID315464184,2.55,inactive
PRSS48 (serine protease 48),SID315464184,-0.17,inactive
PRSS48 (serine protease 48),SID315464184,1.34,inactive
PRSS48 (serine protease 48),SID315464184,3.03,active
TAF13 (TATA-box binding protein associated factor 13),SID315451748,-0.55,inactive
TAF13 (TATA-box binding protein associated factor 13),SID315451748,-0.5,inactive
TAF13 (TATA-box binding protein associated factor 13),SID315451748,-0.37,inactive
TAF13 (TATA-box binding protein associated factor 13),SID315451748,-0.64,inactive
DEFB123 (defensin beta 123),SID315463384,-0.64,inactive
DEFB123 (defensin beta 123),SID315463384,-0.15,inactive
DEFB123 (defensin beta 123),SID315463384,-1.28,inactive
DEFB123 (defensin beta 123),SID315463384,-0.21,inactive
"RAB38 (RAB38, member RAS oncogene family)",SID315455406,,inactive
"RAB38 (RAB38, member RAS oncogene family)",SID315455406,3.31,active
"RAB38 (RAB38, member RAS oncogene family)",SID315455406,2.81,active
"RAB38 (RAB38, member RAS oncogene family)",SID315455406,3.18,active
"RAB38 (RAB38, member RAS oncogene family)",SID315455406,1.78,inactive
BET1 (Bet1 golgi vesicular membrane trafficking protein),SID315453973,1.88,inactive
BET1 (Bet1 golgi vesicular membrane trafficking protein),SID315453973,1.39,inactive
BET1 (Bet1 golgi vesicular membrane trafficking protein),SID315453973,0.73,inactive
BET1 (Bet1 golgi vesicular membrane trafficking protein),SID315453973,1.19,inactive
PHKG1 (phosphorylase kinase catalytic subunit gamma 1),SID315450564,-0.56,inactive
PHKG1 (phosphorylase kinase catalytic subunit gamma 1),SID315450564,0.18,inactive
PHKG1 (phosphorylase kinase catalytic subunit gamma 1),SID315450564,-0.57,inactive
PHKG1 (phosphorylase kinase catalytic subunit gamma 1),SID315450564,0.01,inactive
TBC1D8 (TBC1 domain family member 8),SID315454629,0.12,inactive
TBC1D8 (TBC1 domain family member 8),SID315454629,0.04,inactive
TBC1D8 (TBC1 domain family member 8),SID315454629,-0.47,inactive
TBC1D8 (TBC1 domain family member 8),SID315454629,-0.19,inactive
INTS11 (integrator complex subunit 11),SID315457313,0.2,inactive
INTS11 (integrator complex subunit 11),SID315457313,1.53,inactive
INTS11 (integrator complex subunit 11),SID315457313,-0.82,inactive
INTS11 (integrator complex subunit 11),SID315457313,-0.65,inactive
GLA (galactosidase alpha),SID315448909,-1.54,active
GLA (galactosidase alpha),SID315448909,-1.15,inactive
GLA (galactosidase alpha),SID315448909,-1.14,inactive
GLA (galactosidase alpha),SID315448909,-0.76,inactive
"NPRL2 (NPR2 like, GATOR1 complex subunit)",SID315454260,-0.34,inactive
"NPRL2 (NPR2 like, GATOR1 complex subunit)",SID315454260,0.86,inactive
"NPRL2 (NPR2 like, GATOR1 complex subunit)",SID315454260,-0.3,inactive
"NPRL2 (NPR2 like, GATOR1 complex subunit)",SID315454260,-0.21,inactive
UCKL1 (uridine-cytidine kinase 1 like 1),SID315457304,-1.58,active
UCKL1 (uridine-cytidine kinase 1 like 1),SID315457304,0.64,inactive
UCKL1 (uridine-cytidine kinase 1 like 1),SID315457304,-0.27,inactive
UCKL1 (uridine-cytidine kinase 1 like 1),SID315457304,0.48,inactive
SHOX2 (SHOX homeobox 2),SID315451421,-0.76,inactive
SHOX2 (SHOX homeobox 2),SID315451421,-1.02,inactive
SHOX2 (SHOX homeobox 2),SID315451421,-0.33,inactive
SHOX2 (SHOX homeobox 2),SID315451421,0.68,inactive
RHOA (ras homolog family member A),SID315447391,-0.36,inactive
RHOA (ras homolog family member A),SID315447391,0.21,inactive
RHOA (ras homolog family member A),SID315447391,-0.04,inactive
RHOA (ras homolog family member A),SID315447391,0.1,inactive
IL17B (interleukin 17B),SID315455971,-0.59,inactive
IL17B (interleukin 17B),SID315455971,-0.23,inactive
IL17B (interleukin 17B),SID315455971,-0.24,inactive
IL17B (interleukin 17B),SID315455971,-0.13,inactive
ANAPC15 (anaphase promoting complex subunit 15),SID315455544,-0.87,inactive
ANAPC15 (anaphase promoting complex subunit 15),SID315455544,0.97,inactive
ANAPC15 (anaphase promoting complex subunit 15),SID315455544,-0.09,inactive
ANAPC15 (anaphase promoting complex subunit 15),SID315455544,0.21,inactive
SDCBP (syndecan binding protein),SID315451355,0.23,inactive
SDCBP (syndecan binding protein),SID315451355,0.95,inactive
SDCBP (syndecan binding protein),SID315451355,0.15,inactive
SDCBP (syndecan binding protein),SID315451355,0.42,inactive
